The source of these data is publication PMC5740175.

Data set [1] has as its target T1, IRP1 (iron regulatory protein 1) (UniProt P21399).
T1 sequence (looked up, limits assumed): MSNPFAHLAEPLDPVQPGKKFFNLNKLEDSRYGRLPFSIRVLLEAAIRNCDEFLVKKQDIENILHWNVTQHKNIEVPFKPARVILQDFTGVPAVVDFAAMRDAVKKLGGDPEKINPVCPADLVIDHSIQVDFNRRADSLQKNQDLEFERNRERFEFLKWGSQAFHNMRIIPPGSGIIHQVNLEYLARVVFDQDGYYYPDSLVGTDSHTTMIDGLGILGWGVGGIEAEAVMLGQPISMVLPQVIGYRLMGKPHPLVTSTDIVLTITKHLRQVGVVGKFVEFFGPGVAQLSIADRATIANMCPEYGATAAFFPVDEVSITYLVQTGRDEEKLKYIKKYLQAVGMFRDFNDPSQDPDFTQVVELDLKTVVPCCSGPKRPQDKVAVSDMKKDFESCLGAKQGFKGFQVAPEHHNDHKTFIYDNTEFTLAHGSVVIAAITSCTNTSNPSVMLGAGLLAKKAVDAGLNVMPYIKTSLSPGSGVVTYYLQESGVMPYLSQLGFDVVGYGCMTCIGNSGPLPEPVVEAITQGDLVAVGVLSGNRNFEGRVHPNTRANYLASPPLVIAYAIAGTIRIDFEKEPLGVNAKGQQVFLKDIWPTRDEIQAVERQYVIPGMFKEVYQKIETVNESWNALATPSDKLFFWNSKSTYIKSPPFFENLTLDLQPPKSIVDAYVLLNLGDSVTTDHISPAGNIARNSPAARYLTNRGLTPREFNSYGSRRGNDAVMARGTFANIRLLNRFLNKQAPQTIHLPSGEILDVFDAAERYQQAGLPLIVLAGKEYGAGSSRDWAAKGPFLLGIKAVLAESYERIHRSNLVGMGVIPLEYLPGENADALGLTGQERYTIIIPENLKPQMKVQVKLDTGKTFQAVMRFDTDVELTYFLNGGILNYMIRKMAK
In words: EMSA. To be noted: direct, minimal binding, reduction of almost 95%, mean of 4, heparin; 25 mM Tris/HCl pH 7.4, 40 mM KCl, 1% Triton X-100, protease inhibitor (EDTA-free); 200 ng IRP1, 100 ng labeled probe; 15 min room temperature, then 50 ng heparin 10 min; recombinant protein; probe letters rebuilt from the primers and the genome; part of a longer molecule.

For data set [2], the target named is T1, IRP1 (iron regulatory protein 1). In words: competition EMSA. To be noted: no significant competition at 80-fold excess against labeled WT probe, no Kd could be fitted, heparin; 25 mM Tris/HCl pH 7.4, 40 mM KCl, 1% Triton X-100, protease inhibitor (EDTA-free); 200 ng IRP1, 100 ng labeled probe; 15 min room temperature, then 50 ng heparin 10 min; recombinant protein; probe letters rebuilt from the primers and the genome; part of a longer molecule.

Construct, isoform or probe ends are uncertain for at least one entry. For some assays here: Negatives hold for the conditions tested. Protein sequences can lack the tags named with them.

As for “CGGUCCCGCGGGUCUGUCUCUUGCUUCAAAGUGUUUGGACGGAACAGAUCCGGGGACU [FTL 5' IRE +39ΔC]”, the binding signal (% of WT bound) in data set [1] was 5. In addition, the binding result in data set [2] is on record as “no binding”.
